# Measurements reported in PMC9578707.
# No constants are given. Whether binding was seen depends on the method and setting. Some binding calls cover weakened binding; strength is not graded here.
# T1: PTPRS ECD (human) (UniProt Q13332)
# T1 sequence (chain, biotin where captured on the streptavidin chip): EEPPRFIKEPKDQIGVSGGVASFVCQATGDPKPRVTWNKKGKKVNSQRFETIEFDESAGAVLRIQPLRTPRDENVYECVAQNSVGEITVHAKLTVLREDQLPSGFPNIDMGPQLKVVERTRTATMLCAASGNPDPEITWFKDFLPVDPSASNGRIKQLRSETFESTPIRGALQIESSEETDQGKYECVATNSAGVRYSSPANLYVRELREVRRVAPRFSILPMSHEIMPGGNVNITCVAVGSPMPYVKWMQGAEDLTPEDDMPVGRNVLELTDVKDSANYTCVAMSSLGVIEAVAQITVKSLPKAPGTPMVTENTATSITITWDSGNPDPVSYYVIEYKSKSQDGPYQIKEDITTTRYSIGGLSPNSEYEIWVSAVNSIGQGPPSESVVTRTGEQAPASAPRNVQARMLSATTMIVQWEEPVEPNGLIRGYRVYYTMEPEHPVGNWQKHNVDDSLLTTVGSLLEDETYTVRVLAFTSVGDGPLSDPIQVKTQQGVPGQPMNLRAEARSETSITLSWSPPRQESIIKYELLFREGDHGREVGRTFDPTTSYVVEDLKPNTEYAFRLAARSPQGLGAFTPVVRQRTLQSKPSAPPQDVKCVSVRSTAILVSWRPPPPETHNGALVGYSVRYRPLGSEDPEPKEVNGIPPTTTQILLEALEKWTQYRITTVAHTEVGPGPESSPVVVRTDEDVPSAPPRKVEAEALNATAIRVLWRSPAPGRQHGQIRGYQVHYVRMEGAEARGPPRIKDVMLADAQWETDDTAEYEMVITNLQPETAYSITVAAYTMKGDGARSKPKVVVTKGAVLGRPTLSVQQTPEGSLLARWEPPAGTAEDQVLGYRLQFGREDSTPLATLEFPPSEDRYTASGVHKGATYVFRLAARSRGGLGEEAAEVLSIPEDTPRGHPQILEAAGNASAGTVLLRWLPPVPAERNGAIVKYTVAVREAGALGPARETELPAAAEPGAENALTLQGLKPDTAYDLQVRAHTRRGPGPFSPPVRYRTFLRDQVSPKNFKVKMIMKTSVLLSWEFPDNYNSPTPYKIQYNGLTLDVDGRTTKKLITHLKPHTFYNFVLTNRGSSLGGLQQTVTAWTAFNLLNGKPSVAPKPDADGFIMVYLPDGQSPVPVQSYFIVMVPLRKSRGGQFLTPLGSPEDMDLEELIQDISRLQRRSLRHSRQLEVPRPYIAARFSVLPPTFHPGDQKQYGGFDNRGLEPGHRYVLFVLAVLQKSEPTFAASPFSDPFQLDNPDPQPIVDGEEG
# T2: PTPRU (CRISPRa-induced on K562 cells) (human (endogenous in K562)) (UniProt Q92729)
# T2 sequence: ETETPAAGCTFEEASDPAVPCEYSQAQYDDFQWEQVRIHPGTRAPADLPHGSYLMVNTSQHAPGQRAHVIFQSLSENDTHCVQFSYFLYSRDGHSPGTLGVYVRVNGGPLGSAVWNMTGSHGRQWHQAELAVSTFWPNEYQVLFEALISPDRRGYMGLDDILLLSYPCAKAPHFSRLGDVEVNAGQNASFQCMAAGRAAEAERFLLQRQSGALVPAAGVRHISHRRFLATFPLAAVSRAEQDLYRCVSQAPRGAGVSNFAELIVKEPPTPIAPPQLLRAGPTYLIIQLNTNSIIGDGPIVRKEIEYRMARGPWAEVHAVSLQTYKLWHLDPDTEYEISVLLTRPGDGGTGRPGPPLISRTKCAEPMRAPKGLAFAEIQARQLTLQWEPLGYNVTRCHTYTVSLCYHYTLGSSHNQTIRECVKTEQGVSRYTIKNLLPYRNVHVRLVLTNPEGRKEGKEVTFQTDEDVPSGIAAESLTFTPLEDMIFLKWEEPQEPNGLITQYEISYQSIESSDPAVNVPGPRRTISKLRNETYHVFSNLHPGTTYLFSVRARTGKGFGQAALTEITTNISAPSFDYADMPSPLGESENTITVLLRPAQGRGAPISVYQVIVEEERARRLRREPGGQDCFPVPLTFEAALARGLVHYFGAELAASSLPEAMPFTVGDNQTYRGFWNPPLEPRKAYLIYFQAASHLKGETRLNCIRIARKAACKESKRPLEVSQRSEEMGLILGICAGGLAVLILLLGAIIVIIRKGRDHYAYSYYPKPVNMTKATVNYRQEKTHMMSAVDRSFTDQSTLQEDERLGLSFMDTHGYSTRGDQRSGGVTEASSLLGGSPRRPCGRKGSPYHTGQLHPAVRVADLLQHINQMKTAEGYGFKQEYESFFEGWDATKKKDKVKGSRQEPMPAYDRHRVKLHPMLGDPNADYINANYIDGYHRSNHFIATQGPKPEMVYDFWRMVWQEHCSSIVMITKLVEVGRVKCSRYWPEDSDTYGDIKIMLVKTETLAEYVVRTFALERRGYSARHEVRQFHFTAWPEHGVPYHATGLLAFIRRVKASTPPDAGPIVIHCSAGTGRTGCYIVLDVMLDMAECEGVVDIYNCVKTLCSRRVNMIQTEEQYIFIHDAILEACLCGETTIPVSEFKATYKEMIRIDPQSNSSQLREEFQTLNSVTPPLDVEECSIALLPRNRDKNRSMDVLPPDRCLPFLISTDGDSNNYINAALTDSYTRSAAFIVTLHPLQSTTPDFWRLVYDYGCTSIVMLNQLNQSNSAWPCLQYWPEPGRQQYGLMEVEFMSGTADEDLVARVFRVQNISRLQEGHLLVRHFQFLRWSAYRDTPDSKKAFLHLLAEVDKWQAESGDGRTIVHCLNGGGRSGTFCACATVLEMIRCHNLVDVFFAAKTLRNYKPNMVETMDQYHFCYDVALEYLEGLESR
# B1: Osteocrin (ligand, UniProt P61366 28-133)
# chain: VDVTTTEAFDSGVIDVQSTPTVREEKSATDLTAKLLLLDELVSLENDVIETKKKRSFSGFGSPLDRLSAGSVDHKGKQRKVVDHPKRRFGIPMDRIGRNRLSNSRG
# modifications: biotin (biotinylated in vitro with BirA) where used on beads
# Key:
# PTPRS ECD (human) = molecular target: T1, PTPRS ECD (human); assay: SPR; Biacore T100; biotinylated receptor ECD or hit protein captured on a streptavidin chip (~100-200 RU), non-biotinylated secreted ligand as analyte in twofold dilutions; HBS-P+ buffer; 1:1 Langmuir model or equilibrium fit; both purified
# [1] = molecular target: T2, PTPRU (CRISPRa-induced on K562 cells) (human (endogenous in K562)); assay: CRISPRa enrichment screen (magnetic bead selection of cells, deep sequencing of sgRNAs); biotinylated ligand (1 µM) on streptavidin microbeads with K562 sunCas9 cells carrying pooled sgRNA libraries (mini-library, TM1 or TM2+); 4°C, 30 min, MACS buffer; up to three rounds of MACS positive selection; hits called with casTLE and ESP score; only the binder purified
binder,measurement,setting,value
B1,binding,PTPRS ECD (human),no binding
same,binding,[1],binds
